{"source": "PubChem BioAssay AID1259327 (Drosophila RNAi Screening Center, 2017)", "assay": "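Baseline ATP after transmembrane-protein gene knock-down with water vehicle only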", "system": "Drosophila S2R+ cells", "reagent": "long dsRNA against Drosophila genes", "time to read-out": "5 days (water added on day 4, read one day later)", "treatment": "water added as vehicle, no metal, one day before read-out", "measurement": "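Total ATP measured by luciferase light, scaled to plate mean, duplicates averaged, then z-scored across plates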", "reading the numbers": "ATP z-score: higher = more total ATP than typical wells; ATP luminescence: higher = more total ATP", "call rule": "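Called active when the ATP z-score exceeds 1.5 or falls below -1.5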", "calls": "active = hit: ATP up or down; inactive = no clear ATP change", "note": "This is an unselected part of about 3,100 deposited reagents. 378 of them (12%) count as active. 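Hits include both directions; z-score sign shows ATP rise or fall; raw luminescence values are not plate-normalised.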 A number with no mark means an inactive call. Reagents against one gene are numbered here. The record does not give: the amount of reagent."}
{"gene":"Vha100-4","dsRNA no.":1,"ATP z-score, duplicate mean":-0.00258,"ATP luminescence, replicate 1 (RLU)":3.12e5,"ATP luminescence, replicate 2 (RLU)":7.30e5}
{"gene":"Vha100-4","dsRNA no.":2,"ATP z-score, duplicate mean":1.45,"ATP luminescence, replicate 1 (RLU)":1.03e6,"ATP luminescence, replicate 2 (RLU)":1.03e6}
{"gene":"Ulp1","dsRNA no.":1,"ATP z-score, duplicate mean":-1.3,"ATP luminescence, replicate 1 (RLU)":5.87e5,"ATP luminescence, replicate 2 (RLU)":5.56e5}
{"gene":"Ulp1","dsRNA no.":2,"ATP z-score, duplicate mean":-1.04,"ATP luminescence, replicate 1 (RLU)":3.70e5,"ATP luminescence, replicate 2 (RLU)":4.20e5}
{"gene":"Gr22a","dsRNA no.":1,"ATP z-score, duplicate mean":-0.771,"ATP luminescence, replicate 1 (RLU)":9.86e5,"ATP luminescence, replicate 2 (RLU)":9.43e5}
{"gene":"dome","dsRNA no.":1,"ATP z-score, duplicate mean":1.39,"ATP luminescence, replicate 1 (RLU)":8.74e5,"ATP luminescence, replicate 2 (RLU)":8.24e5}
{"gene":"dome","dsRNA no.":2,"ATP z-score, duplicate mean":"1.62 (active)","ATP luminescence, replicate 1 (RLU)":6.79e5,"ATP luminescence, replicate 2 (RLU)":7.56e5}
{"gene":"dome","dsRNA no.":3,"ATP z-score, duplicate mean":"2.01 (active)","ATP luminescence, replicate 1 (RLU)":8.00e5,"ATP luminescence, replicate 2 (RLU)":6.99e5}
{"gene":"CG10804","dsRNA no.":1,"ATP z-score, duplicate mean":0.129,"ATP luminescence, replicate 1 (RLU)":7.24e5,"ATP luminescence, replicate 2 (RLU)":7.14e5}
{"gene":"CG10804","dsRNA no.":2,"ATP z-score, duplicate mean":-0.335,"ATP luminescence, replicate 1 (RLU)":4.36e5,"ATP luminescence, replicate 2 (RLU)":4.25e5}
{"gene":"Osi23","dsRNA no.":1,"ATP z-score, duplicate mean":0.491,"ATP luminescence, replicate 1 (RLU)":5.07e5,"ATP luminescence, replicate 2 (RLU)":8.83e5}
{"gene":"MsR1","dsRNA no.":1,"ATP z-score, duplicate mean":1.01,"ATP luminescence, replicate 1 (RLU)":7.59e5,"ATP luminescence, replicate 2 (RLU)":6.62e5}
{"gene":"MsR1","dsRNA no.":2,"ATP z-score, duplicate mean":1.34,"ATP luminescence, replicate 1 (RLU)":9.62e5,"ATP luminescence, replicate 2 (RLU)":9.61e5}
{"gene":"babo","dsRNA no.":1,"ATP z-score, duplicate mean":-0.788,"ATP luminescence, replicate 1 (RLU)":6.37e5,"ATP luminescence, replicate 2 (RLU)":4.59e5}
{"gene":"babo","dsRNA no.":2,"ATP z-score, duplicate mean":-0.67,"ATP luminescence, replicate 1 (RLU)":4.59e5,"ATP luminescence, replicate 2 (RLU)":5.88e5}
{"gene":"babo","dsRNA no.":3,"ATP z-score, duplicate mean":0.934,"ATP luminescence, replicate 1 (RLU)":7.63e5,"ATP luminescence, replicate 2 (RLU)":5.53e5}

Called active (from the list above):
{"gene":"dome","dsRNA no.":2,"ATP z-score, duplicate mean":"1.62 (active)","ATP luminescence, replicate 1 (RLU)":6.79e5,"ATP luminescence, replicate 2 (RLU)":7.56e5}
{"gene":"dome","dsRNA no.":3,"ATP z-score, duplicate mean":"2.01 (active)","ATP luminescence, replicate 1 (RLU)":8.00e5,"ATP luminescence, replicate 2 (RLU)":6.99e5}
